Reference: the supplement of paper PMC10849652
The list shows a part of the results.

Sequences of proteins named here, by UniProt entry; tags and fusion partners are left off. A change or cut given only in a name is not applied to a line headed by its entry.
UniProt O75340: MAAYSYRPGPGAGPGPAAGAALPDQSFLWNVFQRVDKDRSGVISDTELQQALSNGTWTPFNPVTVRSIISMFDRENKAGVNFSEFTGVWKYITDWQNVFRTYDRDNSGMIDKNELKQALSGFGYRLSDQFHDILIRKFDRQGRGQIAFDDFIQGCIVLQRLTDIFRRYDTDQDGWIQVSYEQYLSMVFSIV
UniProt O00623: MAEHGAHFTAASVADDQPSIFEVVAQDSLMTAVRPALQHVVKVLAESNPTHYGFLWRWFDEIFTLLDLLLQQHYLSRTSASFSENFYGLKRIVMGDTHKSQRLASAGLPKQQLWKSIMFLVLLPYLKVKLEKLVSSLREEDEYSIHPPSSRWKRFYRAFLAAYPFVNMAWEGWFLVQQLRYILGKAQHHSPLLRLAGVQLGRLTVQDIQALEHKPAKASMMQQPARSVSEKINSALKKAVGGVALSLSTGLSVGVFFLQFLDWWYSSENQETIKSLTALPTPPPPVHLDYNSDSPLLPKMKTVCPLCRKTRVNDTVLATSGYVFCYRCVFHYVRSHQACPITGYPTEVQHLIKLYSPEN
UniProt Q15004: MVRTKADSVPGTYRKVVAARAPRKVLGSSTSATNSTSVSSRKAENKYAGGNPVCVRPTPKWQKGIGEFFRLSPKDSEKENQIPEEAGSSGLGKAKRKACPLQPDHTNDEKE
UniProt Q9BY49: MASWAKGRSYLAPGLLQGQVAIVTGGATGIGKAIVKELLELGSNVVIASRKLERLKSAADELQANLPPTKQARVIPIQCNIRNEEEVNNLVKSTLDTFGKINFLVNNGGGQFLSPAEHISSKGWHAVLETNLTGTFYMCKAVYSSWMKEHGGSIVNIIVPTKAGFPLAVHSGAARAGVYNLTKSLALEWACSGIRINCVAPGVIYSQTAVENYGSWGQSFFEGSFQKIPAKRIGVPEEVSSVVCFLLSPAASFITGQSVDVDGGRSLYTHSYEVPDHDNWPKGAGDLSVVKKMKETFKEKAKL
UniProt Q9NV79: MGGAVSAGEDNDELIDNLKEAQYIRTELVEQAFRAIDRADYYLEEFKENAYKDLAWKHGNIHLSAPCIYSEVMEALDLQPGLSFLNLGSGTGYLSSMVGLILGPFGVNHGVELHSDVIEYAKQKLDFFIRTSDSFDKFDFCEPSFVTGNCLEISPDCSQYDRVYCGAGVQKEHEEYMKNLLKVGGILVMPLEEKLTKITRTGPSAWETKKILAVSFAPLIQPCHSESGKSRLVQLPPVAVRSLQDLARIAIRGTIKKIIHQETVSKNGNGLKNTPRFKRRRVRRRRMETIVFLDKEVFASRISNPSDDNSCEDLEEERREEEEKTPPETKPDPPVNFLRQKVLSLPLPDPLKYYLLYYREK
UniProt O60683: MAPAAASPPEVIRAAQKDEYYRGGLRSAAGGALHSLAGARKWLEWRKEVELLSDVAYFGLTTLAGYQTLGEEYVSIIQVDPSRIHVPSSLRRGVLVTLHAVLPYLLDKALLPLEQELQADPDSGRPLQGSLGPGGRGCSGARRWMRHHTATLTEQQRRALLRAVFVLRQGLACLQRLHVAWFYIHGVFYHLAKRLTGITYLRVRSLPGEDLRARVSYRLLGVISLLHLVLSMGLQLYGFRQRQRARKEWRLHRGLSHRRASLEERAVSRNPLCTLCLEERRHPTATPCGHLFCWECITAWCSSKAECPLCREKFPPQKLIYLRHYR
UniProt Q8N165: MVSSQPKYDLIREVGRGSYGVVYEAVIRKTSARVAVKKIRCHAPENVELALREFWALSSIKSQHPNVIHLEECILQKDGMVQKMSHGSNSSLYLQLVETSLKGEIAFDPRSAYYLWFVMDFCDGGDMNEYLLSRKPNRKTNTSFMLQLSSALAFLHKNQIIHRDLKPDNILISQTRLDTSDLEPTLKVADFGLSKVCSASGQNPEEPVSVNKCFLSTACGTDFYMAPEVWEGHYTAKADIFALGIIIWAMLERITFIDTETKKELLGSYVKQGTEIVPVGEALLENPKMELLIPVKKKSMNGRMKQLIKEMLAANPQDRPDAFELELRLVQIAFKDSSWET
UniProt Q96MG8: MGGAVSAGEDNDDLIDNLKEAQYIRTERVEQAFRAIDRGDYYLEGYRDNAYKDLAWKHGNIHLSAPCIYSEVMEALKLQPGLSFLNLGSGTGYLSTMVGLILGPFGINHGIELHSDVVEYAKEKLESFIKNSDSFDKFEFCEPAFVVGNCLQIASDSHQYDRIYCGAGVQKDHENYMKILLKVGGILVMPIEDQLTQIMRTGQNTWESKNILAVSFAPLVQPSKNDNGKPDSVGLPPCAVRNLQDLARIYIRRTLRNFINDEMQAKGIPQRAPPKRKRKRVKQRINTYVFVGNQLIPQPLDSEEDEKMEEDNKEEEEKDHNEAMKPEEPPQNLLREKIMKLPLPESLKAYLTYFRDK
UniProt P60673: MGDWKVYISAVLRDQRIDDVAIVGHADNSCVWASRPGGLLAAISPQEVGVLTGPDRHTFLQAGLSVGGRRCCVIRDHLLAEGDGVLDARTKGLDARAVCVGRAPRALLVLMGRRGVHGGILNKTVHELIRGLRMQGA

Key:
Assay in all cases: log2 fold change, soluble protein after heating vs DMSO (PISA); higher = thermal stabilisation; K562 lysate, 10 uM; active = over 0.2 and 3.5 SD of the protein, either way, in both replicates (recomputed)
ralimetinib = compound: CC(C)(C)Cn1c(N)nc2ccc(-c3[nH]c(C(C)(C)C)nc3-c3ccc(F)cc3)nc21 [ralimetinib]
How it was run: (§1)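 To prepare the extract, K562 pellets were dounce-homogenised in PBS pH 7.4 with 1 mM MgCl2, giving crude material at 1 mg/mL protein. This was treated with 10 μM compound for 30 min, then heated in aliquots for 3 min over 48°C-58°C before pooling and addition of NP-40 to 0.5% at 4°C. Centrifugation at 21,000xg for 90 min left soluble protein in the supernatant, which TMTpro 16plex LC-MS/MS quantified with equalised channel sums. Results are log-two fold changes in thermal stability compared with solvent controls, from duplicates.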

[1] = compound: CC(C)(O)CC(=O)NCCn1ccc2ncnc(Nc3ccc(Oc4cccc(C(F)(F)F)c4)c(Cl)c3)c21
How it was run: as §1

[2] = compound: CC1=C(C=C(C=C1)NC(=O)C2=CC(=CC=C2)N(C)C)NC(=O)C3=CC=C(C=C3)O
How it was run: as §1

[3] = compound: CCn1c(C(=O)N(C2CC2)C2CC2)cc2c3c(ncn3C)c(Nc3cc(C)n(C)n3)nc21
How it was run: as §1

[4] = compound: CCn1cc(-c2ccnc3[nH]c(-c4cccc(CN(C)C)c4)cc23)c(-c2ccc(NC(=O)N(C)C)cc2)n1
How it was run: as §1

[5] = compound: CN1CCC(CNc2ccc3ncc(-c4cccc(OC(F)(F)F)c4)n3n2)CC1
How it was run: as §1

[6] = compound: CC(=O)c1cnc2ccc(-c3cc(Cl)c(O)c(Cl)c3)nc2c1N[C@H]1CC[C@H](CN(C)C)CC1
How it was run: as §1

[7] = compound: CC1=CC=C(C=C1)SC2=C3C=C(SC3=CN=C2)C(=O)N
How it was run: as §1

[8] = compound: CCCS(=O)(=O)Nc1ccc(F)c(C(=O)c2c[nH]c3ncc(Cl)cc23)c1F
How it was run: as §1

volasertib = compound: CC[C@@H]1C(=O)N(C)c2cnc(Nc3ccc(C(=O)N[C@H]4CC[C@H](N5CCN(CC6CC6)CC5)CC4)cc3OC)nc2N1C(C)C [volasertib]
How it was run: as §1

ibrutinib = compound: C=CC(=O)N1CCC[C@@H](n2nc(-c3ccc(Oc4ccccc4)cc3)c3c(N)ncnc32)C1 [ibrutinib]
How it was run: as §1

[9] = compound: CC(C)C1=C2N=C(C=C(N2N=C1)NCC3=CC=CC=C3)NCCCCCCN
How it was run: as §1

[10] = compound: CC1=C(C(CC(=O)N1)C2=CC=C(C=C2)C(F)(F)F)C(=O)NC3=C(C=C4C(=C3)C=NN4)F
How it was run: as §1

[11] = compound: CC1=C(C2=C(C=C1)C(=O)C3=CC=CC=C3N2CCCN)C
How it was run: as §1

[12] = compound: CC1=C(C=C(C=C1)NC(=O)C2=CC(=CC=C2)C(C)(C)C#N)NC3=CC4=C(C=C3)N=CN(C4=O)C
How it was run: as §1

vemurafenib = compound: CCCS(=O)(=O)Nc1ccc(F)c(C(=O)c2c[nH]c3ncc(-c4ccc(Cl)cc4)cc23)c1F [vemurafenib]
How it was run: as §1

barasertib = compound: CCN(CCCOc1ccc2c(Nc3cc(CC(=O)Nc4cccc(F)c4)[nH]n3)ncnc2c1)CCOP(=O)(O)O [barasertib]
How it was run: as §1

[13] = compound: CC[C@@H]1C(=O)N(C)c2cnc(Nc3ccc(C(=O)NC4CCN(C)CC4)cc3OC)nc2N1C1CCCC1
How it was run: as §1

saracatinib = compound: CN1CCN(CCOc2cc(OC3CCOCC3)c3c(Nc4c(Cl)ccc5c4OCO5)ncnc3c2)CC1 [saracatinib]
How it was run: as §1

sotrastaurin = compound: CN1CCN(c2nc(C3=C(c4c[nH]c5ccccc45)C(=O)NC3=O)c3ccccc3n2)CC1 [sotrastaurin]
How it was run: as §1

Measured: log2 fold change

PDCD6 isoform 2 (UniProt O75340)
inactive: ralimetinib 0.025 | [1] -0.119 | [2] -0.021 | [3] -0.018 | [4] -0.018 | [5] -0.032

PEX12 (UniProt O00623)
inactive: [6] 0.018 | [7] 0.005 | [8] 0.014 | volasertib -0.014 | [4] 0.083 | [5] -0.236

PCLAF (UniProt Q15004)
inactive: ibrutinib 0.025 | ralimetinib 0.035 | [1] -0.014 | [9] -0.011 | [10] 0.003 | [11] -0.041 | [12] 0.034 | [2] -0.005 | vemurafenib -0.016 | barasertib -0.068 | [13] 0.057 | [3] -0.033 | [4] -0.067 | [5] 0.121 | saracatinib -0.013 | sotrastaurin 0.011

PDE4DIP (UniProt E9PS60)
active: [4] -0.942
inactive: [9] 0.037 | [10] -0.113 | [11] 0.076 | [12] 0.234 | vemurafenib -0.014 | [13] 0.017 | [5] 0.153 | saracatinib 0.067 | sotrastaurin 0.137

PECR (UniProt Q9BY49)
inactive: [13] 0.023

PCMTD2 (UniProt Q9NV79)
inactive: [9] -0.264 | [12] -0.019 | vemurafenib 0.109 | [13] -0.163 | sotrastaurin -0.192

PEX10 isoform 2 (UniProt O60683)
inactive: ibrutinib 0.173 | barasertib 0.213

Pulled one by one from above (2):
PDE4DIP (UniProt E9PS60)
active: [4] -0.942
inactive: [9] 0.037 | [10] -0.113 | [11] 0.076 | [12] 0.234 | vemurafenib -0.014 | [13] 0.017 | [5] 0.153 | saracatinib 0.067 | sotrastaurin 0.137

PDCD6 isoform 2 (UniProt O75340)
inactive: ralimetinib 0.025 | [1] -0.119 | [2] -0.021 | [3] -0.018 | [4] -0.018 | [5] -0.032

Later entries:

PEX5 (UniProt J3KPV0)
inactive: ralimetinib 0.306 | [1] -0.102 | [2] 0.009 | vemurafenib -0.053 | [13] 0 | [3] 0.324

PDIK1L (UniProt Q8N165)
inactive: ralimetinib -0.115 | [1] -0.153 | [11] 0.035 | [2] -0.036 | [3] 0.203 | saracatinib 0.025

PCMTD1 (UniProt Q96MG8)
inactive: vemurafenib -0.05 | [13] -0.007

PCBP2 (UniProt F8VRH0)
inactive: [6] -0.014 | ralimetinib 0.087 | [1] -0.033 | [9] 0.051 | [10] 0.129 | [12] 0.017 | [2] 0.012 | [7] 0.027 | [8] -0.035 | volasertib -0.058 | [3] -0.138 | [4] -0.033 | [5] -0.047 | sotrastaurin -0.066

PFN3 (UniProt P60673)
inactive: [6] 0.042 | [10] -0.02 | [12] -0.03 | [7] -0.02 | vemurafenib 0.059 | [8] 0 | [13] 0.112 | volasertib 0.056 | [5] 0.109 | sotrastaurin 0.042
active: [4] -0.706
